This experiment concerns the target T1, human Nup35N (aa. 1-160) (human) (UniProt Q8NFH5).
T1 sequence (chain, ATTO dye (ATTO390, 488 or 610) by maleimide on the added C-terminal cysteine): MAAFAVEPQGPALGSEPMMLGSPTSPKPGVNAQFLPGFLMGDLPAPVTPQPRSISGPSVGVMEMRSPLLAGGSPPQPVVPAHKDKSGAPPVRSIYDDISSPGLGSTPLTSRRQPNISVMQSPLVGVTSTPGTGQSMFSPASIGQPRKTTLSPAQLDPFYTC
Briefly: in vitro self-assembled particle assay.

Chains of the proteins cited; added tags and fusions are not shown. Lines headed by an entry give the natural chain unless they say otherwise; changes in a name come on top. A line that says so, or that is headed by a name, gives the form on record, which may keep a tag or linker.
human Nup98FG (aa. 214-480) (P52948, form named): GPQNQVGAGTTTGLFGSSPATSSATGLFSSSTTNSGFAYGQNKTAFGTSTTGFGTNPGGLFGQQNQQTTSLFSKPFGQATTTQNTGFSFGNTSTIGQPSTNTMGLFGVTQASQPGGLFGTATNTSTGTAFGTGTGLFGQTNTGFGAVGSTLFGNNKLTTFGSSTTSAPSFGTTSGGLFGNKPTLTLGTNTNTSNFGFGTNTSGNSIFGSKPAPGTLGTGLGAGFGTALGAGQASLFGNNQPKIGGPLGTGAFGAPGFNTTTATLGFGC

In article doi:10.1101/506469 one finds binding data, which are given here for 1 substance.

No constants are given. Whether binding was seen depends on the method and setting. Some entries that bind do so weakly or less than the wild type.

Regarding “human Nup98FG (aa. 214-480) (from UniProt P52948 214-480) (domain or fragment)”, the binding result is on record as “binds”.
